Measured values as given in patent US20180346592A1.
These are yes or no findings as the source states them, for the method shown. Some results given as binding are weak or reduced against the parent protein; the word gives no strength.

The chains behind the UniProt entries cited, without tags or fusion partners. Where a name states a change or a piece, a line headed by the entry shows the natural chain unless it says otherwise.
UniProt P51654: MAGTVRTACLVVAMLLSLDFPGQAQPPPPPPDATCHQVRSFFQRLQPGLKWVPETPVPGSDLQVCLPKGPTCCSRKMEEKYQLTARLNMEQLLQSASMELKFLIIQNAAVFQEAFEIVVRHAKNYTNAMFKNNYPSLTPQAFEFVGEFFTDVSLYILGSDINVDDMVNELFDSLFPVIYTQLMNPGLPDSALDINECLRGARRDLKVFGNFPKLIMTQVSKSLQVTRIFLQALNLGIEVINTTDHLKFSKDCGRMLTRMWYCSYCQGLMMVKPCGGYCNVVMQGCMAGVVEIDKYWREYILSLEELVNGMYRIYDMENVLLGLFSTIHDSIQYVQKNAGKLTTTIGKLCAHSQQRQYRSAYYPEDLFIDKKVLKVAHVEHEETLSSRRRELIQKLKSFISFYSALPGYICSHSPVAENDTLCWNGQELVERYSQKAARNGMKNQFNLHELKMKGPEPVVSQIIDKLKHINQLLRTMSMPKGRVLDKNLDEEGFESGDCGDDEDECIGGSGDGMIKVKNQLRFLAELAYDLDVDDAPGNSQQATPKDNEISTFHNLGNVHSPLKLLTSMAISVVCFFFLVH

Target: human GPC3 (GPC3 antigen coated for panning and ELISA) (human) (UniProt P51654)
Experiment: ELISA, clone culture supernatant on GPC3-coated plate

| Binder | binding |
| --- | --- |
| clone GX090 (scFv, V domains shown) VH: QVQLVQSGAEVKKPGASVKVSCKASGYTFTSYGISWVRQAPGQGLEWMGWISAYNGNTNYAQKLQGRVTMTTDTSTSTAYMELRSLRSDDTAVYYCARGSSFSGFDPWGQGTLVTVSS VL: QSVLTQPPSLSAAPGQKVTISCSGSSSNIGKNHVSWYQQFPGTAPKFLIYDNHRRPSGIPDRFSGSKSGTSATLDITGLQTGDEATYYCGTWDSSLSAVVFGGGTKLTVLG | binds |
| clone GX122 (scFv, V domains shown) VH: EVQLVESGAEVKKPGASVKVSCKASGYTFTSYYMHWVRQAPGQGLEWMGIINPSGGSTSYAQKFQGRVTMTRDTSTSTVYMELSSLRSEDTAVYYCARDGGSSPDIWGQGTMVTVSS VL: SYELTQPPSVSVSPGQTARITCSGDALPKKYAYWYQQKSGQAPVLVIYEDKKRPSEIPERFSGSSSGTMATLTITGAQVDDEADYYCYSIDRSGSRGVFGGGTKLTVLG | binds |
| clone GX184 (scFv, V domains shown) VH: QLQLQESGPGLVKPSETLSLTCAVSGGSISSSNNYWGWIRQPPGKGLEWIGSIFYSGSTYYNPSLKSRVTISVDTSKNQFSLKLSSVTAADTAVYYCARLPTGTPGFYFDYWGQGTLVTVSS VL: SYELTQPPSVSKGLRQTATLTCTGNSNNVGNQGAAWLQQHQGHPPKLLSYRNNNRPSGISERFSASRSGNTASLTITGLQPEDEADYYCSAWDSSLSAWVFGGGTKLTVLG | binds |
| clone GX189 (scFv, V domains shown) VH: QLQLQESGPGLVKPSETLSLTCAVSGGSISSSNNYWGWIRQPPGKGLEWIGSIFYSGSTYYNPSLKSRVTISVDTSKNQFSLKLSSVTAADTAVYYCARLPTGTPGFYFDYWGQGTLVTVSS VL: SYVLTQPPSVSKGLRQTATLTCTGNSSNVGNQGAAWLQQHQGHPPKLLSYRNNNRPSGISERFSASRSGNTASLTITGLRPEDEADYYCSAWDSSLSAWVFGGGTKLTVLG | binds |
| clone GX197 (scFv, V domains shown) VH: QVQLVQSGAEVKKPGASVKVSCKASGYTFTSYGISWVRQAPGQGLEWMGWISAYNGNTNYAQKLQGRVTMTTDTSTSTAYMELRSLRSDDTAVYYCASQGSGWLDYWGQGTLVTVSS VL: NFMLTQPHSVSESPGKTVTISCTGSGGNIASNYVQWFQQRPGSAPTTVIYDDVQRPSGVPNRFSGSIDSSSNSASLSISGLKTEDEADYYCQSYDRTYRGVFGGGTKLTVLG | binds |
| clone GX201 (scFv, V domains shown) VH: QVQLVESGGGLVNPGGSLRLSCAASGFTFSNYGMNWVRQAPGKGLEWVSSISTRSGYIFYADSVKGRFTISRDNAKNSLYLQMNSLRAEDTAVYYCARDRPNRSGMDVWGQGTTVTVSS VL: QSALTQPASVSGSPGQSITISCTGTSSDVGGYNYVSWYQQHPGKAPKLMIYDVSNRPSGVSNRFSGSKSGNTASLTISGLQAEDEGDYYCSSYTSSDTLVFGSGTKVTVLG | binds |
| clone GX206 (scFv, V domains shown) VH: QLQLQESGPGLVKPSETLSLTCTVSGGSISSSSYYWGWIRQPPGKGLEWIGSIYYSGSTYYNPSLKSRVTISVDTSKNQFSLKLSSVTAADTAVYYCARLGDYGGNGYYFDYWGQGTLVTVSS VL: QSVLTQPPSVSAASGQKVTVSCSGSSSNIGKNGVSWHQQLPGTAPKLLIYENNRRPSEIPDRFSGSKSGTSATLAITGLQTGDEADYYCGTWDSSLNAGVFGTGTKVTVLG | binds |
| clone GX207 (scFv, V domains shown) VH: EVQLVQSGAEVKKPGASVKVSCKASGYTFTSYGISWVRQAPGQGLEWMGWISAYNGNTNYAQKLQGRVTMTTDTSTSTAYMELRSLRSDDTAVYYCAREGIAAAGYYYGMDVWGQGTTVTVSS VL: QSALTQPPSVSGSPGQSVTISCTGTSSDVGGYNRVSWYQQPPGTAPKLMIYEVSNRPSGVPDRFSGSKSGNTASLTISGLQAEDEADYYCSSYTSSTTYVFGTGTKVTVLG | binds |
| clone GX213 (scFv, V domains shown) VH: QLQLQESGPGLVKPSETLSLTCTVSGGSISSSSYYWGWIRQPPGKGLEWIGSIYYSGSTYYNPSLKSRVTISVDTSKNQFSLKLSSVTAADTAVYYCARLFWQQLTFDYWGQGTLVTVSS VL: QSVVTQPPSVSAAPGQRVSISCSGSSSNIGKNHVIWHQQFPGTAPKLLISENNKRPSGIPDRFSASKSGTSATLDITGLQTGDEADYYCGTWDNSLSAGVFGGGTKLTVLG | binds |
| clone GX214 (scFv, V domains shown) VH: EVQLVESGGGLVKPGGSLRLSCAASGFTFSDYYMSWIRQAPGKGLEWVSYISSSGSTIYYADSVKGRFTISRDNAKNSLYLQMNSLRVDDTAVYYCATLYDFWSQGTLVTVSS VL: NIQMTQSPSSLSASVGDRVTITCQASQDITNFLNWHQQKPGKAPELLIYDASNLETGVPSRFSGSGSGTDFTFTISSLQPEDVGTYYCQQYDNLPLTFGGGTKVEIKR | binds |
| clone GX221 (scFv, V domains shown) VH: QLQLQESGPGLVKPSETLSLTCAVSGGSISSSNNYWGWIRQPPGKGLEWIGSIFYSGSTYYNPSLKSRVTISVDTSKNQFSLKLSSVTAADTAVYYCARLPTGTPGFYFDYWGQGTLVTVSS VL: SYVLTQPPSVSKDLRQTATLTCTGNSSNVGNQGAAWVQQHQGHPPKLLSYRNNKRPSGISERLSASRSGNTASLTITGLQPEDEADYYCSAWDSSLSAWVFGGGTKLTVLG | binds |
| clone GX224 (scFv, V domains shown) VH: QVQLVQSGAEVKKPGASVKVSCKASGYTFTSYYMHWVRQAPGQGLEWMGIINPSGGSTSYAQKFQGRVTMTRDTSTSTVYMELSSLRSEDTAVYYCARSRPRSSSFDYWGRGTLVTVSS VL: NFMLTQPHSVSESPGKTVTISCTVSSGSIAKNYVHWYQRRPGSAPTPLIYEDNRRPSGVPDRFSGSIDSSSNSASLTISGLKTEDEADYYCQSYDDSGDRFVFGTGTKVTVLG | binds |
| clone GX225 (scFv, V domains shown) VH: QVQLVQSGAEVKKPGASVKVSCKASGYTFTSYYMHWVRQAPGQGLEWMGIINPSGGSTSYAQKFQGRVTMTRDTSTSTVYMELSSLRSEDTAVYYCARESGPSGGMDVWGQGTTVTVSS VL: SYELTQPPSVSVSPGQTARITCSGDALPKQYAYWYQQKPGQAPVLVIYKDSERPSGIPERFSGSSSGTTVTLTISGVQAEDEADYYCSSYTSSSTRVVFGGGTKLTVLG | binds |
| clone GX099 (scFv, V domains shown) VH: EVQLVESGAEVKKPGASVKVSCKASGYTFTSYYMHWVRQAPGQGLEWMGIINPSGGSTSYAQKFQGRVTMTRDTSTSTVYMELSSLRSEDTAVYYCARYSSSPAKIDYWGQGTLVTVSS VL: QSVLTQPPSVSAAPGEKVIISCSGSSSNIGKYYVSWYQQLPGTAPKLLIYDNNKRPSGIPDRFSGSKSGTSATLGISGLQTGDEADYYCGTWDSSLNLVFGTGTKVTVLG | binds |
| clone GX234 (scFv, V domains shown) VH: QVQLVQSGAEVKKPGASVKVSCKASGYTFTSYGISWVRQAPGQGLEWMGWISAYNGNTNYAQKLQGRVTMTTDTSTSTAYMELRSLRSDDTAVYYCARVGLGDFWSGDYYYYYYGMDVWGQGTTVTVSS VL: SSELTQDPAVSVALGQTVRITCQGDSLRSSYASWYHQKPGQAPVLVMYGKNNRPSGIPDRFSGSSSGNTASLTITGAQAEDEADYYCHSRDSTGSHPNWVFGGGTKLTVLG | binds |
| clone GX242 (scFv, V domains shown) VH: QVQLVESGGGLVKPGGSLRLSCAASGFTFSDYYMSWIRQAPGKGLEWVSYISSSGSTIYYADSVKGRFTISRDNAKNSLYLQMNSLRAEDTAVYYCARVVAAREDYWGQGTLVTVSS VL: EIVLTQSPATLSLSPGERATLSCRATQSVGSYLAWYQQKPGQAPRLLIYDAFNRATGIPDRFSGSGSGTDFTLTISSLEPEDFAVYYCQQRSNWPLTFGGGTKVEIKR | binds |
| clone GX245 (scFv, V domains shown) VH: QVQLVESGGGLVKPGGSLRLSCAASGFTFSDYYMSWIRQAPGKGLEWVSYISSSGSTIYYADSVKGRFTISRDNAKNSLYLQMNSLRAEDTAVYYCARVSDDSPYWGQGTLVTVSS VL: VIWMTQSPSSLSASVGDRVTITCQASQDISNYLNWYQQKPGKAPKLLIYDASNLETGVPSRFSGSGSGTDFTFTISSLQPEDIATYYCQQYDNLLALTFGGGTKLEIKR | binds |
| clone GX247 (scFv, V domains shown) VH: QVQLVQSGAEVKKPGASVKVSCKASGYTFTSYYMHWVRQAPGQGLEWMGIINPSGGSTSYAQKFQGRVTMTRDTSTSTVYMELSSLRSEDTAVYYCARTRKGSGYSYGYGMDVWGQGTTVTVSS VL: SYELTQPPSVSVSPGQTASITCSGDKLGNKYVSWYQQKPGQSPVLVIYQDNKRPSGIPERFSGSNSGNTATLTISGTQAMDEAGYYCQTWDSSVVFGGGTKLTVLG | binds |
| clone GX253 (scFv, V domains shown) VH: EVQLVESGGGLVKPGGSLRLSCAASGFTFSDYYMSWIRQAPGKGLEWVSYISSSGTTIYYADSVKGRFTISRDNAKKSLYLQMNSLRAEDTAVYYCARVRDSSGFWGRGTLVTVSS VL: QSVLTQPPSVSAAPGQKVTISCSGSSSNIGNNYVSWYQQLPGTAPKLLIYDNNKRPSGIPDRFSGSKSGTSATLGITGLQTGDEADYYCGTWDSSLSAWVVGGGTKLTVLG | binds |
| clone GX259 (scFv, V domains shown) VH: QVQLVQSGAEVKKPGESLRISCKASGYKFTNYWIAWVRQMPGKGLEWMGIIYPGDSDTRYSPSLQGQVTISADKSITTAYLQWSSLRASDTAMYYCATIGLREGRWGQGTLVTVSS VL: AIQMTQSPSSLSASVGDRVTITCRASQGISNYLAWYQQKPGKAPKLLIYDASNLETGVPSRFSGSGSGTDFTFTISSLQPEDIATYYCQQYDNLPFGQGTKLEIKR | binds |
| clone GX263 (scFv, V domains shown) VH: EVQLVESGGGLVKPGGSLRLSCAASGFTFSSYSMNWVRQAPGKGLEWVSSISSSSSYIYYADSVKGRFTISRDNAKNSLYLQMNSLRAEDTAVYYCARVTPYYYYGMDVWGQGTTVTVSS VL: QSVVTQPPSVSAAPGQKVTISCSGSSSNIGNNYVSWYQQLPGTAPKLLIYDSNKRPPGIPDRFSGSKSGTSATLGITGLQTGDEADYYCGAWDSSLSAVVFGGGTKLTVLG | binds |
| clone GX264 (scFv, V domains shown) VH: QLQLQESGPGLVKPSETLSLTCTVSGGSISSSSYYWGWIRQPPGKGLEWIGSIYYSGSTYYNPSLKSRVTISVDTSKNQFSLKLSSVTAADTAVYYCARLRWYSYGYFDVRGGYYFDYWGRGTLVTVSS VL: QSVLTQPPSVSAASGQKVTVSCSGSSSNIGKNGVSWHQQLPGTAPKLLIYENNRRPSEIPDRFSGSKSGTSATLAITGLQTGDEADYYCGTWDSSLNAGVFGTGTKVTVLG | binds |
